Laboratory results from paper PMC8149633.
These are yes or no findings as the source states them, for the method shown. Binding seen in cells or lysates may run through a third protein. Some entries that bind do so weakly or less than the wild type.

The chains behind the UniProt entries cited, without tags or fusion partners.
UniProt Q12884: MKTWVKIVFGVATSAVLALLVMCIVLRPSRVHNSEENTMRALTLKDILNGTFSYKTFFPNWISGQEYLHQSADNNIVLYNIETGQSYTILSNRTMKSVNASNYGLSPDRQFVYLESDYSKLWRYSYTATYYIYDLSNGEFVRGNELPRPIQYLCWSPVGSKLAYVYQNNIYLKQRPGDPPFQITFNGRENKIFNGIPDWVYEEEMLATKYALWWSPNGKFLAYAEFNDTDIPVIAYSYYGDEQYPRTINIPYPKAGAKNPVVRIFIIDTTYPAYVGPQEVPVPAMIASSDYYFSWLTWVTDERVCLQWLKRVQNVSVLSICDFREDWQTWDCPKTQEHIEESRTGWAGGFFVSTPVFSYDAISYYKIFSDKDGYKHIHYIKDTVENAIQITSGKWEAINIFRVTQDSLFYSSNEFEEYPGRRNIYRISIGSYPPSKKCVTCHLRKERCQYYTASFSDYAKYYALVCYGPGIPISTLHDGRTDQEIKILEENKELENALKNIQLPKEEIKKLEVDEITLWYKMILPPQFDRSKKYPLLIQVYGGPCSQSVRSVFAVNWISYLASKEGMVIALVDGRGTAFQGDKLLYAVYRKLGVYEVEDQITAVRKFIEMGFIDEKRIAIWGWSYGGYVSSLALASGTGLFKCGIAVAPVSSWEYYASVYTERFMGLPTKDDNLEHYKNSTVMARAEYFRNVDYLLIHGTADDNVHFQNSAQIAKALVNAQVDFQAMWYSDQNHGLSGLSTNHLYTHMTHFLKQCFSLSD
UniProt P06733: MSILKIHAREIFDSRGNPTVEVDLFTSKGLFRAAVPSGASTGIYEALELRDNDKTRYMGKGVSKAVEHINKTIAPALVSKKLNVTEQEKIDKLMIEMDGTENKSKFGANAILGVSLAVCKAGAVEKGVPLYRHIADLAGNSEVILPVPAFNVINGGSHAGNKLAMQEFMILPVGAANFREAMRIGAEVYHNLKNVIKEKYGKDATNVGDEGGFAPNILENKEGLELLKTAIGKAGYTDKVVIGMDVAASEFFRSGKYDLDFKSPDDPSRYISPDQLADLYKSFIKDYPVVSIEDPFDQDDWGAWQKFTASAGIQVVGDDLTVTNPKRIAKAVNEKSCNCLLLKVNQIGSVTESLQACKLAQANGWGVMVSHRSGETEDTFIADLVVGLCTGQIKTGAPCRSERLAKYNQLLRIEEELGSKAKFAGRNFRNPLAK

Target: Fibroblast activation protein alpha (FAP), overexpressed in HCT116-FAP and HCT8-FAP cells (UniProt Q12884)
Experiment: co-IP; lysates of HCT116-FAP and HCT8-FAP cells immunoprecipitated with anti-FAP or anti-ENO1 antibody (IgG as negative control), protein A agarose, 4 °C, western blot

binding: binds
Substance: Enolase1 (ENO1) (from UniProt P06733 1-434)
